Data taken from the supplement of paper PMC12889115.
This is one part of the list. Values are raw readings; no control value is given beside them.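 In the initial screen, polymyxin B was used at a concentration that permeabilizes Salmonella's outer membrane but not its inner membrane. Maximum growth was set by DMSO wells with or without polymyxin B. Since plates varied, data were ranked per plate, and compounds giving the lowest OD600 advanced as hits.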

Test system: Salmonella enterica serovar Typhimurium SL1344
Test: bacterial growth OD600 after 18 h with compound and polymyxin B; higher = more bacterial growth (less inhibition)
Details: 50 µM, Mueller-Hinton broth

Compound	bacterial growth OD600 (polymyxin B 0.75 µg/mL)	bacterial growth OD600 (polymyxin B 1 µg/mL)
O=C(Nc1cccc(-c2ccc(F)cc2)c1)C1CCCN(Cc2ccccn2)C1 (stereo not given)	0.013	
Cc1ncoc1C(=O)NC1CC(C)(C)Cc2nc(C(C)(C)C)ncc21 (stereo not given)		0.848
Cc1cccc(-c2cnc(-c3ccncc3)nc2C2CCN(C(=O)c3cccs3)CC2)c1	0.007	
CCOC(=O)C1(Cc2ccccc2F)CCCN(C(=O)c2ccc3c(c2)OCCO3)C1 (stereo not given)		0.555
O=C(CCC1CCCN(Cc2cccn2-c2cccnc2)C1)Nc1ccccc1F (stereo not given)		0.911
COc1cccc(C2CCCN2C(=O)c2cn(Cc3ccccc3Cl)nn2)c1 (stereo not given)		0.206
O=C(NC1CCCC1)c1ccc(N2CCC(NCCC3=CCCCC3)CC2)cc1	0.767	
Cc1oc(-c2ccc(NC(=O)Cc3ccccc3)cc2)nc1CNC(=O)Cc1ccccc1F	0.913	
COc1cc(Cl)cc(CNC2COc3ccccc3C2)c1OC (stereo not given)		1.12
O=C1N(Cc2ccc(F)c(F)c2)CCCC1(O)CNC1CCCC1 (stereo not given)		0.942
CCN(CC)C1CCN(C(=O)c2cc(Cl)ccc2OC2CCN(C(C)=O)CC2)C1 (stereo not given)	0.873	
Cc1oc(-c2cc(F)ccc2F)nc1CN1CCCCC1CCN1CCCC1=O (stereo not given)		0.776
COC(=O)CCCC(=O)N1CCCC(Nc2ccc(C)c(C)c2)C1 (stereo not given)		0.936
CCOC(=O)C1(CCCc2ccccc2)CCN(C(=O)CCN2CCCCC2=O)CC1		0.734
CCn1cc(CN2CCC3(CC2)c2ccccc2[C@@H](NC(=O)c2cccc(F)c2)[C@@H]3OC)c(C)n1	0.927	
COc1ccc(CCN2CC(C(=O)NCCc3ccccn3)CCC2=O)cc1 (stereo not given)		0.916
CSc1ccc(CC2(CCC(=O)N3CCC(O)(c4ccc(Cl)cc4)CC3)CCC(=O)N2)cc1 (stereo not given)	0.869	
Cc1ncc2c(c1CNC(=O)/C=C/c1cccs1)CCN(C(=O)c1ccc3nccnc3c1)C2	0.985	
CC(Nc1ccc(-c2nc(Cc3ccccc3)no2)cn1)c1nncn1C (stereo not given)	0.817	
COc1ccc(-c2noc(CN(C)Cc3cnn(-c4ccccc4C)c3)n2)cc1		0.007
COCC1CCCN(C(=O)C2(N3CCCCC3)Cc3ccccc3C2)C1 (stereo not given)	0.723	
O=C(CCCCc1ccccc1)N1CCOc2ccc(CN3CCN(c4ncccn4)CC3)cc2C1	0.61	
CCCOC1CCCN(C(=O)c2ccc(OC3CCN(Cc4ccccn4)CC3)cc2)C1 (stereo not given)		1.07
O=C(Nc1ccc(Oc2ccccc2F)cc1)C1CCN(C2CCC2)CC1		1.09
CN(C(=O)CCc1nnc(-c2ccc(-c3ccccc3)cc2)o1)C1CCOCC1		0.801
O=C1CCC(CCC(=O)N(Cc2ccccc2)CC2CC2)(Cc2ccco2)N1 (stereo not given)	0.816	
COCCO[C@H]1[C@H](NC(=O)C(C)C)c2ccccc2C12CCN(Cc1cccc(O)c1)CC2	0.891	
Cn1cc(CN2CCCCC2c2nccs2)c(-c2ccc3c(c2)OCCO3)n1 (stereo not given)		0.746
O=C(COc1ccccc1)N1CCCC(Nc2ccc(F)cc2)C1 (stereo not given)		1.09
CC(C)c1ccc(NC2CCCN(C(=O)CCc3cccnc3)C2)cc1 (stereo not given)	0.648	

Shown as labelled records: entries from further up
O=C(Nc1cccc(-c2ccc(F)cc2)c1)C1CCCN(Cc2ccccn2)C1 (stereo not given)
  bacterial growth OD600 (polymyxin B 0.75 µg/mL): 0.013
CN(C(=O)CCc1nnc(-c2ccc(-c3ccccc3)cc2)o1)C1CCOCC1
  bacterial growth OD600 (polymyxin B 1 µg/mL): 0.801
